Test results taken from patent US9102636B2, “Analgesic compounds, compositions, and uses thereof” (Galleon Pharmaceuticals, Inc., priority 2010, dated 2015).
“Also recorded” adds a separate entry of the source. At least one compound was matched to its structure with a doubt left.

What was measured:
[1] = system: FCA induced tactile allodynia; assay: FCA induced tactile allodynia (electronic von Frey); type: in vivo; details: rat
Description: (§1) Compound 2 was evaluated in the rat Freund's complete adjuvant (FCA) model of inflammatory pain. The rat Freund's complete adjuvant (FCA) intraplantar model of inflammatory pain produces behaviors similar to those observed in patients and has been widely used to assess novel pharmacological treatments (Lam et al., 2008, J Ethnopharmacol. 120:44-50). The positive control was celecoxib (TRC, Montreal), and the negative control was vehicle (0.5% methyl cellulose, in phosphate buffered saline). […] The Hargreaves apparatus was obtained from Ugo Basile, Italy. The Freund's complete adjuvant was obtained from Sigma, St. Louis, and the electronic von frey was obtained from Stoelting, Ill. For this assay, paw withdrawal latency to a thermal stimulus was assessed using a radiant heat source (Ugo Basile, Italy) aimed at the plantar surface of the left hind paw (Hargreaves test; […] Paw withdrawal thresholds to a non-noxious tactile stimulus was assessed using an electronic von Frey apparatus that presented an increasing mechanical force to the plantar surface of the hind paw. Paw volume was measured by displacement of water and assuming a tissue density equal to that of water. […] Statistical significance was determined on untransformed data using a two-way analysis of variance (Graphpad Prism, NC). Significant main effects were analyzed further by subsequent Bonferronni post-hoc test. […]

FCA induced edema = FCA induced edema (paw volume); type: in vivo; details: rat; celecoxib 30 mg/kg p.o.; 24 and 48 hours post-administration
Description: as §1

Cc1ccc(-c2cc(C(F)(F)F)nn2-c2ccc(S(N)(=O)=O)cc2)cc1 [celecoxib, reference compound]
reversal of FCA induced tactile allodynia, positive control ([1]; celecoxib 30 mg/kg p.o. 24 hours post-FCA, 60 minutes post-administration): statistically significant reversal | prevention of FCA-induced tactile allodynia lasting 3 days, positive control ([1]; celecoxib, same p.o. dose, preemptive): not seen | FCA induced edema, positive control (FCA induced edema): statistically significant block of edema; also recorded: associated with reductions in edema
